Laboratory results published in patent US20220152160A1, “DOSING REGIMEN” (Novo Nordisk A/S, priority 2013, published 2022).

Experiments:
[1] = system: insulin-naïve participants with T2DM; assay: Clinical Trial 1: daily insulin dose after 26 weeks of titration; assay type: in vivo, human
Excerpt: This phase 3a, 26-week, randomized, controlled, open-label, multinational, treat-to-target, non-inferiority trial compared the efficacy and safety of IDeg U-200 (i.e. 200 U/mL) and IGlar (100 U/mL) both administered OD in combination with metformin (met) ±DPP-4 inhibitor in insulin-naïve participants with T2DM previously treated with oral antidiabetic drugs OAD(s), who qualified for intensification of treatment. The trial was open-label because the pen devices used to administer the basal insulins were distinctively different and blinding was, therefore, impossible.
Using the interactive voice/web response system, eligible participants were randomized 1:1 to either once-daily IDeg U-200 (IDeg 200 U/mL, 3 mL FlexTouch®, Novo Nordisk, Bagsvård, Denmark) or once-daily IGlar (Lantus® 100 U/mL, 3 mL SoloStar® Sanofi Aventis U.S. LLC) and continued metformin ±DPP-4 inhibitor treatment. Trial participants were instructed to continue the same total daily dose of metformin and DPP-4 inhibitor treatment as before the start of the trial.
Insulin degludec was administered once-daily with the main evening meal and, consistent with its product labelling, IGlar was administered once-daily (OD) at the same time each day. Either treatment was injected subcutaneously in the thigh, upper arm or abdomen. The starting dose for each was 10 U, and during the treatment period, the insulin dose was systematically titrated using a treat-to-target approach striving for a pre-breakfast self-measured plasma glucose (SMPG) level of 4.0-4.9 mmol/L (71-89 mg/dL). Both IDeg and IGlar were similarly titrated once weekly in 2 U increments. The treatment period was 26 weeks and doses were individually titrated in an effort to achieve the same glucose targets with both treatments.

[2] = system: subjects with type 2 diabetes mellitus; assay: Clinical Trial 2: daily insulin dose required at end of trial; assay type: in vivo, human; details: end of the trial; both arms
Excerpt: This was a confirmatory 22-week, randomised (1:1), open labelled, stratified, multi-centre, two armed parallel group, treat-to-target, controlled trial comparing efficacy and safety of IDeg 200 U/mL with IDeg 100 U/mL, both in combination with pre-trial OAD treatment, in subjects with type 2 diabetes mellitus.
During the trial treatment period the insulin dose was to be titrated once weekly by the investigator based upon the subject's SMPG levels and the Insulin Titration Guideline. The insulin dose adjustments were to aim at a pre-breakfast SMPG value between 4.0 and 5.0 mmol/L (71 and 90 mg/dL).
The starting dose of trial insulin was to be based on a 1:1 transfer of the total daily pre-randomisation insulin therapy dose. No maximum insulin dose was specified.

Substance: NεB29-(Nα—(HOOC(CH2)14CO)-γ-Glu)des(B30)-human insulin [insulin degludec]
- mean ratio IDeg/IGlar of daily insulin dose (U) ([1]; after 26 weeks of treatment): 0.95
- mean ratio IDeg/IGlar of daily insulin dose (U/kg) ([1]; after 26 weeks of treatment): 0.94
- percentage of participants who required more than 80 U of insulin ([1]; end of trial): 21.2%
- percentage of participants who required more than 160 U of insulin daily ([1]; end of trial): 0.9%
- percentage of all subjects who required >160 U [2]: approximately 6%
- percentage of all subjects who required a daily IDeg dose of >80 U [2]: approximately 38%
